PubChem BioAssay AID1259308, NCATS, 2017

- Aim: 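Candidate targets for better recombinant protein yield in mammalian cells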 (primary screen)
- Cell system: human HEK293 embryonic kidney cells stably expressing firefly luciferase (HEK-CMV-Luc2-Hygro)
- Reagents: single siRNA against human genes, 0.8 pmol siRNA per well
- Duration: 72 h
- Read-out: 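Reporter luminescence and viable-cell signal on separate replicate plates, given as percent of non-targeting control and median/MAD z-scores, plus per-cell luciferase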
- Reading the numbers: total luciferase, z-score: higher = more reporter protein produced
- Call rule: 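Active when the median/MAD z-score for overall luciferase is greater than 3; a gene was taken forward for validation with new siRNAs if at least two of its three siRNAs passed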
- Meaning of the calls: active = raised luciferase; inactive = no rise
Here is a random part of about 59,000 reagents tested. In the full data, about 1,510 (2.6%) got an active call. 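Calls use total luciferase alone and ignore viability, so some active siRNAs may act by altering cell number.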 Reagents against one gene are numbered here. Further read-outs or replicates are left out here.

With knock-down of CYBRD1 (cytochrome b reductase 1) #1, the record shows total luciferase, z-score 0.76; inactive.
After knock-down of CYBRD1 (cytochrome b reductase 1) #2, the record shows total luciferase, z-score -0.068; inactive.
After knock-down of CYBRD1 (cytochrome b reductase 1) #3, the screen gave total luciferase, z-score -1.33; inactive.
SNAP91 (synaptosome associated protein 91) #1 gave total luciferase, z-score -0.472; inactive.
SNAP91 (synaptosome associated protein 91) #2 showed total luciferase, z-score -2.84; inactive.
With knock-down of SNAP91 (synaptosome associated protein 91) #3, the screen gave total luciferase, z-score 0.154; inactive.
RPS16 (ribosomal protein S16) #1 showed total luciferase, z-score -2.02; inactive.
After knock-down of RPS16 (ribosomal protein S16) #2, the screen gave total luciferase, z-score -1.85; inactive.
Knock-down of RPS16 (ribosomal protein S16) #3 resulted in: total luciferase, z-score -1.98; inactive.
After knock-down of ATP8B4 (ATPase phospholipid transporting 8B4 (putative)) #1, the record shows total luciferase, z-score 1.2; inactive.
ATP8B4 (ATPase phospholipid transporting 8B4 (putative)) #2 scored total luciferase, z-score -0.465; inactive.
Against ATP8B4 (ATPase phospholipid transporting 8B4 (putative)) #3 the deposit lists total luciferase, z-score 2.47; inactive.
HERPUD2 (HERPUD family member 2) #1 scored total luciferase, z-score -0.454; inactive.
With knock-down of HERPUD2 (HERPUD family member 2) #2 the results were total luciferase, z-score 2.9; inactive.
After knock-down of HERPUD2 (HERPUD family member 2) #3 the results were total luciferase, z-score 1.76; inactive.
Knock-down of HECA (HECA ribonucleoprotein granule regulator) #1 gave: total luciferase, z-score -0.673; inactive.
HECA (HECA ribonucleoprotein granule regulator) #2 showed total luciferase, z-score 0.536; inactive.
With knock-down of HECA (HECA ribonucleoprotein granule regulator) #3 the results were total luciferase, z-score 0.215; inactive.

4 entries already listed, sorted by “total luciferase, z-score”, low to high.
RPS16 (ribosomal protein S16) #1 — total luciferase, z-score: -2.02; activity call: inactive
RPS16 (ribosomal protein S16) #3 — total luciferase, z-score: -1.98; activity call: inactive
RPS16 (ribosomal protein S16) #2 — total luciferase, z-score: -1.85; activity call: inactive
SNAP91 (synaptosome associated protein 91) #3 — total luciferase, z-score: 0.154; activity call: inactive

The results go on:
With knock-down of EIF3M (eukaryotic translation initiation factor 3 subunit M) #1 the results were total luciferase, z-score 0.766; inactive.
For EIF3M (eukaryotic translation initiation factor 3 subunit M) #2, the values are total luciferase, z-score -1.14; inactive.
Silencing of EIF3M (eukaryotic translation initiation factor 3 subunit M) #3 came out at: total luciferase, z-score -2.28; inactive.
Against OBSCN #1 the deposit lists total luciferase, z-score -1.02; inactive.
For OBSCN #2, the entry reads total luciferase, z-score -0.32; inactive.
OBSCN #3 scored total luciferase, z-score -0.101; inactive.
Depletion of OBSCN #4 resulted in: total luciferase, z-score 1.51; inactive.
Against OBSCN #5, the entry reads total luciferase, z-score 0.719; inactive.
After knock-down of OBSCN #6, the screen gave total luciferase, z-score -0.743; inactive.
Silencing of AKAP3 (A-kinase anchoring protein 3) #1 resulted in: total luciferase, z-score 0.0218; inactive.
After knock-down of AKAP3 (A-kinase anchoring protein 3) #2, the screen gave total luciferase, z-score 1.12; inactive.
With knock-down of AKAP3 (A-kinase anchoring protein 3) #3, the screen gave total luciferase, z-score 0.378; inactive.
STX2 (syntaxin 2) #1 scored total luciferase, z-score 1.61; inactive.
With knock-down of STX2 (syntaxin 2) #2, the screen gave total luciferase, z-score 0.0202; inactive.
After knock-down of STX2 (syntaxin 2) #3, the screen gave total luciferase, z-score 0.46; inactive.
